Measurements as given in paper PMC12670160, “A drug-repurposing screen of FDA- and EMA-approved drugs identifies two NF-κB inhibitors active against eumycetoma” (Journal of Antimicrobial Chemotherapy, 2025).
Counter-ions that a name gives are not always drawn. Hit rate of the full screen: of about 5,300 compounds, about 130 (2.5%) showed an effect of 50% or more. Some of the results follow. Square brackets hold non-standard residues; d marks the D form. Peptide text beside a SMILES is read from it. dTrp(2-Me) = Cc1[nH]c2ccccc2c1C[C@@H](N)C(=O)O

Each compound was assayed on M. mycetomatis strain mm55. Conditions: primary screen, metabolic activity vs growth control; 96 h, 2 µM; inhibitor.

Point of comparison: CCC(=O)Nc1cccc(Oc2nc(Nc3ccc(N4CCN(C)CC4)cc3OC)ncc2Cl)c1 [ONC0004489, wz4003], “% viability” value 69.3%. Against it:
- CN(C)C(=O)Oc1ccc[n+](C)c1 [ONC0004690, pyridostigmine bromide mestinon] — higher, 116.6%
- Nc1c2c(nc3ccccc13)CCCC2O (stereo not shown) [ONC0002339, hydroxytacrinemaleaters] — higher, 82.36%
- Nc1ccn([C@@H]2CS[C@H](CO)O2)c(=O)n1 [ONC0002447, lamivudine] — higher, 126.7%
- Cc1cc(N)c2ccccc2[n+]1CCCCCCCCCC[n+]1c(C)cc(N)c2ccccc21 [ONC0003143, dequalinium chloride] — higher, 80.42%
- COc1ccccc1OCC(O)COC(N)=O (stereo not shown) [ONC0000414, methocarbamol] — higher, 76.82%
- COc1cc(N2CCC(N3CCN(C)CC3)CC2)ccc1Nc1ncc(Cl)c(Nc2ccccc2P(C)(C)=O)n1 [ONC0000933, brigatinib] — higher, 88.97%
- Cc1[nH]c2ccccc2c1C[C@@H](NC(=O)[C@@H](N)Cc1cnc[nH]1)C(=O)N[C@@H](C)C(=O)N[C@@H](Cc1c[nH]c2ccccc12)C(=O)N[C@H](Cc1ccccc1)C(=O)N[C@@H](CCCCN)C(N)=O [ONC0005614, examorelin] (H-H[dTrp(2-Me)]AW[dF]K-NH2) — lower, 66.44%
- NNC(=O)CSc1nc2scc(-c3ccccc3)c2c(=O)n1-c1ccccc1 [ONC0002540, ldn27219] — lower, 64.26%
- CC(NC(=O)CCc1nc(=O)c2ccccc2[nH]1)c1ccccc1 (stereo not shown) [ONC0005174, me0328] — higher, 117.9%
- COc1ccc(C(=O)/C(Br)=C/C(=O)O)cc1 [ONC0005546, bromebricacid] — higher, 94.54%
- Cc1c(CN(C)C(=O)/C=C/c2cnc3c(c2)CCC(=O)N3)oc2ccccc12 [ONC0001083, afn1252] — lower, 61.58%
- COc1cc(OC)nc(O[C@H](C(=O)O)C(OC)(c2ccccc2)c2ccccc2)n1 [ONC0002004, darusentan] — higher, 83.46%
- O=C(NC1CCN(CCc2c[nH]c3ccccc23)CC1)c1ccccc1 [ONC0001966, indoramin] — lower, 68.77%
- O=C1/C(=C/c2ccccc2)C(NC2CCCCC2)c2ccccc21 (stereo not shown) [ONC0002937, cid5458317] — higher, 97.61%
- CCNC(=O)/C=C/c1cccc(Br)c1 [ONC0000527, cinromide] — higher, 96.44%
- NC1CCN(c2nc3c(cc2F)c(=O)c(C(=O)O)cn3-c2ccc(F)cc2F)C1 (stereo not shown) [ONC0003219, tosufloxacin] — higher, 74.9%
- Cn1ccc2cc3c(cc21)CCN3C(=O)Nc1cccnc1 [ONC0001371, sb206553] — higher, 94.08%
- Cc1c(-c2ccccc2F)[nH]c(N)c1C#N [ONC0003774, ns8] — higher, 112.5%
- CCCCc1ccc(NS(=O)(=O)c2ccc(F)cc2)cc1 [ONC0003590, dc260126] — higher, 102.1%
- C=CC(=O)Nc1cccc(Nc2nc(Nc3ccc(OCCOC)cc3)ncc2F)c1 [ONC0005149, cc292 avl292] — higher, 103.2%
- CCCOc1ccc(S(=O)(=O)N2CCN(CCO)CC2)cc1-c1nc2c(CCC)cn(CC)c2c(=O)[nH]1 [ONC0001035, mirodenafil dihydrochloride] — higher, 96.75%
- c1ccc(-c2ccc(CNc3nc(-c4ccccn4)nnc3-c3ccccc3)cc2)cc1 [ONC0001674, ml228] — lower, 2.835%
- Clc1cccc2c1CN(C1=NCCN1)C2 [ONC0000137, rs45041190] — higher, 104.6%
- CO/N=C(\C(=O)N[C@@H]1C(=O)N2C(C(=O)OC(C)OC(C)=O)=C(COC(N)=O)CS[C@H]12)c1ccco1 (stereo partly shown) [ONC0005599, cefuroximeaxetil] — higher, 92.96%
- O=C(O)Cc1cccc2c(=O)cc(-c3ccccc3)oc12 [ONC0003869, 4oxo2phenyl4hchromen8ylacetic acid] — lower, 56.65%
- O=[N+]([O-])c1c(Nc2cc(F)cc(Cl)c2)ccc2nonc12 [ONC0003032, tcs7009] — lower, 67.33%
- CCCSc1ccc2nc(NC(=O)OC)[nH]c2c1 [ONC0002437, albendazole] — higher, 105.9%
- CCC(=O)O[C@]1(C(=O)CO)CC[C@H]2[C@@H]3CCC4=CC(=O)CC[C@]4(C)[C@H]3CC[C@@]21C [ONC0000901, clascoterone] — lower, 68.84%
- NC(=NCc1ccc(Cl)cc1)SCCCc1cnc[nH]1 [ONC0002491, clobenpropit] — higher, 94.75%
- CN1CCN(c2nc3ccccc3nc2Cl)CC1 [ONC0004494, vuf 10166] — higher, 100.6%
- O=C(/C=C/c1c(C(=O)O)[nH]c2cc(Cl)cc(Cl)c12)Nc1ccccc1 [ONC0003531, gavestinel] — higher, 108.3%
- CC(C)c1c(NC(=O)Nc2ccc(Cl)cc2)c(=O)n(-c2ccccc2)n1C [ONC0001909, tcfpr43] — lower, 60.36%
- C[C@@H]1COC(Nc2ccc3ncnc(Nc4ccc(OCc5nccs5)c(Cl)c4)c3c2)=N1 [ONC0005018, varlitinib] — higher, 90.25%
- O=C(O)/C=C/CO [ONC0000264, trans4hydroxycrotonicacid] — lower, 66.04%
- O=C(/C=C/c1ccc(O)c(O)c1)O[C@@H]1C[C@](O)(C(=O)O)C[C@@H](O)[C@H]1O [ONC0004960, chlorogenic acid] — higher, 87.22%
- C[N+]1(C)C2CC[C@H]1C[C@@H](OC(=O)C(O)c1ccccc1)C2 (stereo partly shown) [ONC0000437, homatropine methylbromide] — higher, 73.59%
- CCCCC(=O)NCCc1c(Cc2ccccc2)[nH]c2ccccc12 [ONC0000239, dh97] — higher, 81.02%
- CCC[C@@]1(CCc2ccccc2)CC(O)=C([C@H](CC)c2cccc(NS(=O)(=O)c3ccc(C(F)(F)F)cn3)c2)C(=O)O1 [ONC0000841, tipranavir] — higher, 94.16%
- Cc1cc2c(C(C)C)c(O)c(O)c(C=O)c2c(O)c1-c1c(C)cc2c(C(C)C)c(O)c(O)c(C=O)c2c1O [ONC0002567, gossypol] — higher, 85.72%
